Test results taken from publication PMC5419085.
These are yes or no findings as the source states them, for the method shown. Binding can be weak; no strength is given.

Target: full-length human LRP1 (low-density lipoprotein receptor-related protein 1) (human)
Assay: ELISA; full-length human LRP1 (5 nM) coated on microtiter plates; various concentrations of FLAG-tagged ADAMTS-5-2, ADAMTS-4 lacking spacer domain or TIMP-3 with or without 1B7 or RAP (each 100 nM); detected by anti-FLAG M2 and HRP-conjugated secondary antibody; TNC buffer, 2 h, room temperature; both purified

B1: tissue inhibitor of metalloproteinases 3 (TIMP-3) (protein, UniProt P35625 24-211)
chain: CTCSPSHPQDAFCNSDIVIRAKVVGKKLVKEGPFGTLVYTIKQMKMYRGFTKMPHVQYIHTEASESLCGLKLEVNKYQYLLTGRVYDGKMYTGLCNFVERWDQLTLSQRKGLNYRYHLGCNCKIKSCYYLPCFVTSKNECLWTDMLSNFGYPGYQSKHYACIRQKGGYCSWYRGWAPPDKSIINATDP
  binding: binds
